Assay results: PubChem BioAssay AID602313 (National Center for Advancing Translational Sciences (NCATS), 2012)
Among all 390,000 compounds or so, about 760 (0.19%) were called active. This list was built around the results that the source calls inconclusive (neither active nor inactive); the mix of calls is not that of the screen. Calls follow the shape of the dose curve; as a rule, active = well fitted inhibition curve with a large enough effect; inconclusive = small, poorly fitted or top-dose-only effect; inactive = flat fitted curve, though single readings scatter. Where the call is inconclusive, the potency comes from a doubtful curve fit.

assay: qHTS for Inhibitors of Vif-A3F Interactions: qHTS; conditions: HeLa A3F-eYFP + Vif (tagged APOBEC3F with the HIV-1 protein that degrades it), YFP fluorescence increase; series mostly up to 46.1 µM; activity, negative = active: at the top concentration; also: nearly all actives have a fitted effect of over 65% in size; as to activity, negative = active: % of control where 0% means no effect
Summary of the method: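 HeLa cells stably expressing A3F-eYFP plus Vif, plated and incubated overnight at 37 deg C, then exposed to compounds overnight at 37 deg C. Blocked degradation read as raised yellow fluorescence (Ex 488/Em 500-530).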
Potency is read from the fitted curve at half-maximal effect.

| SMILES | Potency | activity, negative = active |
| --- | --- | --- |
| COc1cc2c(cc1OC)-c1n[nH]c(=S)n1C(C)(C)C2 | inconclusive: 3.98 µM [inhibitor, partial curve, poor fit] | – |
| N=c1oc2ccccc2cc1-c1nc(-c2ccccc2)cs1 | inconclusive: 25.1 µM [inhibitor, single point] | – |
| C#CCOC(=O)Nc1cccn(Cc2c(Cl)cccc2Cl)c1=O | – | inactive: 3.31% |
| CCOC(=O)N1CCN(C(=O)CNC(=O)Cn2cnc3ccccc3c2=O)CC1 | inconclusive: 35.5 µM [inhibitor, single point] | – |
| COCCn1c(SCC(=O)Nc2ccc(F)c(Cl)c2)nc2c(oc3ccccc32)c1=O | inconclusive: 15.8 µM [inhibitor, single point] | – |
| COc1cc(/C=C/c2ccc(O)cc2)cc(OC)c1 | – | inactive: 0.601% |
| N/C(Cc1nc(-c2ccc(F)cc2)cs1)=N\O | – | inactive: 8.41% |
| COC(=O)CSc1nnc([C@H](Cc2ccccc2)NC(=O)OC(C)(C)C)o1 | – | inactive: -10.1% |
| O=C(CNC(=O)c1ccccc1Br)N/N=C/c1ccccc1O | – | inactive: 9.53% |
| CSc1nc(NCCN(C)C)c2sc3nc(-c4ccco4)c4c(c3c2n1)CCC4 | inconclusive: 1.41 µM [inhibitor, partial curve, poor fit] | – |
| COc1cc(/C=C2/C(=N)N3C(=NC2=O)SN=C3S(=O)(=O)C(C)C)ccc1OC(=O)c1ccco1 | inconclusive: 35.5 µM [inhibitor, single point] | – |
| Cc1ccc(N=C2NC(=O)/C(=C/C=C/c3ccco3)S2)cc1 | inconclusive: 12.6 µM [inhibitor, partial curve, poor fit] | – |
| CC(=O)Nc1ncnc2c1c(-c1ccc(Cl)cc1)nn2C(C)(C)C | – | inactive: 0.0573% |
| COc1ccc2cc(C(=O)N/N=C/c3sc4ccccc4c3O)ccc2c1 | inconclusive: 31.6 µM [inhibitor, single point] | – |
| Cn1c(=O)c(C(=O)NNC(=O)c2ccc(Br)cc2)c(O)c2ccccc21 | – | inactive: 5.08% |
| O=C1C2C3C=CC(C4CC34)C2C(=O)N1/N=C/c1ccc([N+](=O)[O-])o1 (stereo unspecified) | – | inactive: 8.36% |
| O=C(/C=C/c1ccco1)Nc1ccc(Oc2ccc(Cl)cc2)cc1 | – | inactive: 0.917% |
| O=C(Nc1cc(S(=O)(=O)N2CCOCC2)ccc1N1CCCCC1)c1ccccc1 | inconclusive: 5.01 µM [inhibitor, single point] | – |
| CC(C)Cn1c(N)c(C(=O)COC(=O)c2ccccc2F)c(=O)n(C)c1=O | – | inactive: 2.07% |
| COc1cc2c(=O)c(S(=O)(=O)c3ccc(F)cc3)cn(Cc3ccccc3C)c2cc1OC | – | inactive: -11.2% |
| CCC(C)(CCNC(=O)Cc1ccccc1)c1ccccc1OC (stereo unspecified) | inconclusive: 35.5 µM [inhibitor, single point] | – |
| CC1(C)CC(=O)CC(=NCC(=O)O)C1 | – | inactive: -10.2% |
| CCCN(CCC)C(=O)CSc1nc2ccccc2c(=O)n1CC1COc2ccccc2O1 (stereo unspecified) | inconclusive: 35.5 µM [inhibitor, single point] | – |
| CC1=C(C)C(C)=C(C#N)C(=C(C#N)C#N)N1 | – | inactive: 6.51% |
| O=C(NC(=S)Nc1nc2ccccc2s1)c1cccs1 | inconclusive: 11.2 µM [inhibitor, partial curve, poor fit] | – |
| O=c1[nH]c(CN2CCN(Cc3ccccc3)CC2)nc2scc(-c3ccccc3)c12 | inconclusive: 22.4 µM [inhibitor, partial curve, poor fit] | – |

Looked up above:
Entry of COc1cc2c(cc1OC)-c1n[nH]c(=S)n1C(C)(C)C2 under Potency: inconclusive: 3.98 µM [inhibitor, partial curve, poor fit]
Entry of COCCn1c(SCC(=O)Nc2ccc(F)c(Cl)c2)nc2c(oc3ccccc32)c1=O under Potency: inconclusive: 15.8 µM [inhibitor, single point]
Entry of CSc1nc(NCCN(C)C)c2sc3nc(-c4ccco4)c4c(c3c2n1)CCC4 under Potency: inconclusive: 1.41 µM [inhibitor, partial curve, poor fit]
Entry of CCC(C)(CCNC(=O)Cc1ccccc1)c1ccccc1OC (stereo unspecified) under Potency: inconclusive: 35.5 µM [inhibitor, single point]
Entry of O=C(/C=C/c1ccco1)Nc1ccc(Oc2ccc(Cl)cc2)cc1 under activity, negative = active: inactive: 0.917%

Next part

| SMILES | Potency | activity, negative = active |
| --- | --- | --- |
| O=C(O)c1cc2nc3c(c(C(F)(F)F)n2n1)CCc1ccccc1-3 | – | inactive: -8.84% |
| O=C(COC(=O)c1ccc(CSc2ccc(Cl)cc2)cc1)Nc1ccccc1 | inconclusive: 3.16 µM [inhibitor, partial curve, poor fit] | – |
| Cc1nc(C(Cl)(Cl)Cl)nc2[nH]ccc(=O)c12 | – | inactive: -28.6% |
| O=C(Nc1nc2ccccc2s1)C1CCCO1 (stereo unspecified) | inconclusive: 22.4 µM [inhibitor, single point] | – |
| Cc1ccc2c(=O)c(C(=O)c3ccccc3)cn(CC(=O)Nc3ccc4c(c3)OCCO4)c2n1 | inconclusive: 25.1 µM [inhibitor, single point] | – |
| CCCCNC(=O)Cn1c(=O)c2c(ncn2CCC(C)C)n(Cc2ccccc2)c1=O | inconclusive: 14.1 µM [inhibitor, single point] | – |
| COc1ccc(N=C(N)SCc2ccccn2)cc1 | inconclusive: 25.1 µM [inhibitor, single point] | – |
| CC(=O)c1ccc(N2CCN(S(=O)(=O)c3c(C)nc4sc(C)cn4c3=O)CC2)cc1 | – | inactive: -1.57% |
| Cn1c(SSc2ccc(-c3cccnc3)n2C)ccc1-c1cccnc1 | inconclusive: 14.1 µM [inhibitor, single point] | – |
| CC(=O)Nc1ccc(C(=O)COC(=O)c2nc3nc(C)cc(C)n3n2)cc1 | – | inactive: -1.87% |
| CCCn1c(SCc2nc(-c3ccccc3C)no2)nnc1-c1ccc(Cl)cc1 | – | inactive: -3.94% |
| CC1=C/C(=N\OS(=O)(=O)c2ccccc2)C(C)=CC1=O | – | inactive: 6.14% |
| Cc1cccc(S(=O)(=O)NC2CCCCCCC2)c1 | inconclusive: 6.31 µM [inhibitor, single point] | – |
| Cc1ccc2cccc(SCC(=O)Nc3ccc(F)cc3)c2n1 | inconclusive: 35.5 µM [inhibitor, single point] | – |
| CCN=c1scc(-c2ccc(F)cc2)n1/N=C/c1ccccn1 | inconclusive: 10 µM [inhibitor, partial curve, poor fit] | – |
| CCCN1CN(CCc2ccccc2)CNC1=S | inconclusive: 35.5 µM [inhibitor, single point] | – |
| CCCCCN1CSC(=S)N(Cc2ccccc2)C1 | – | inactive: -0.0431% |
| CCc1nnc(NC(=O)c2nc(S(=O)(=O)Cc3cccc(C)c3)ncc2Cl)s1 | inactive | – |
| Cc1ccccc1C1CC(=O)Oc2cc(O)ccc21 (stereo unspecified) | inconclusive: 12.6 µM [inhibitor, single point] | – |
| CCN1CCN(c2cc(SC(C)C)nc(-c3ccc(OC)cc3)n2)CC1 | – | inactive: -29.2% |
| COc1cccc2cc(C(=O)OCC(=O)N3CC(C)OC(C)C3)c(=O)oc12 (stereo unspecified) | inconclusive: 10 µM [inhibitor, partial curve, poor fit] | – |
| CC(=O)Oc1c(-c2ccco2)oc2ccccc2c1=O | inconclusive: 1.41 µM [inhibitor, full curve, poor fit] | – |
| Clc1cc2nc(-c3cccnc3Cl)[nH]c2cc1Cl | inconclusive: 35.5 µM [inhibitor, single point] | – |
| Cc1ccc(-c2nn(-c3ccccc3)cc2CN(Cc2ccccc2)C(=O)c2ccco2)o1 | – | inactive: -11.8% |
| COc1ccc2[nH]c(=O)c(CN(C)C(=O)c3cccs3)cc2c1 | inconclusive: 0.562 µM [inhibitor, full curve, poor fit] | – |
| O=C(NCC1CCCO1)C(=Cc1cccc([N+](=O)[O-])c1)C(=O)NCC1CCCO1 (stereo unspecified) | – | inactive: 8.93% |

| SMILES | Potency | activity, negative = active |
| --- | --- | --- |
| COc1cc(/C=C2\SC(N)=NC2=O)cc(Br)c1O | inconclusive: 35.5 µM [inhibitor, single point] | – |
| Cc1[nH]c(=O)n(C(C)C)c(=O)c1Br | inconclusive: 6.31 µM [inhibitor, single point] | – |
| COc1ccc(NC(=S)Nc2ccccc2)cc1 | inactive | – |
| Cc1ccc(/C=C2/SC(=O)NC2=S)o1 | – | inactive: -0.193% |
| Nc1nc(O)c(CC(=O)O)s1 | inconclusive: 35.5 µM [inhibitor, single point] | – |
| Cc1cc(C)n(-c2ccc([N+](=O)[O-])cc2-c2nn[nH]n2)n1 | inconclusive: 11.2 µM [inhibitor, partial curve, poor fit] | – |
| O=C(Nc1ccc(N2CCOCC2)cc1)c1ccc2nc(-c3ccco3)c(-c3ccco3)nc2c1 | – | inactive: -7.1% |
| CC/C(=N/Nc1cccc(C)c1)c1cnnc(SC)n1 | inconclusive: 20 µM [inhibitor, partial curve, poor fit] | – |
| COc1ccc2nc(SCC(=O)Nc3ccc4sc(C)nc4c3)c(C#N)cc2c1 | active: 22.4 µM | – |
| O=c1cc(CSc2ccc(Cl)cc2)[nH]c2[nH]n(-c3ccccc3)c(=O)c12 | – | inactive: 11.8% |
| Cn1cc(C=C2C(=O)CC(C)(C)CC2=O)c2ccccc21 | inconclusive: 35.5 µM [inhibitor, single point] | – |
| CCN1C(=O)[C@@H]2Cc3c([nH]c4ccccc34)C(c3cc(OC)c(OC)c(OC)c3)N2C1=S (stereo partly specified) | inconclusive: 3.55 µM [inhibitor, partial curve, poor fit] | – |
| CS(=O)(=O)N1CCN(C(=O)Cc2ccccc2Cl)CC1 | inconclusive: 3.16 µM [inhibitor, single point] | – |
| Cc1ccccc1CSc1nnnn1-c1ccc(C(N)=O)cc1 | inconclusive: 35.5 µM [inhibitor, single point] | – |
| N/C(=N\NC(=O)c1cccs1)c1cc2ccccc2oc1=O | – | inactive: 1.85% |
| COc1ccc(NC(=O)C(CC(C)C)NC(=O)C2CCCCC2)cc1 (stereo unspecified) | – | inactive: 3.06% |
| COc1ccc(Cl)cc1NC(=O)C1CCCN(S(=O)(=O)c2cccc3nonc23)C1 (stereo unspecified) | inconclusive: 11.2 µM [inhibitor, single point] | – |
| COc1ccc(-c2cc(-c3ccccc3O)[nH]n2)cc1 | – | inactive: -5.46% |
| COc1ccccc1CN1CCNC(=O)C1=O | – | inactive: 3.73% |
| CN1CCN(c2ccc(S(=O)(=O)N3CCOCC3)cc2NC(=O)COc2ccc(C#N)cc2)CC1 | – | inactive: 2.6% |
| Cc1noc(C)c1CSc1nc2ccccc2nc1NS(=O)(=O)c1ccc(Cl)cc1 | inconclusive: 25.1 µM [inhibitor, single point] | – |
| COc1ccc(C(=O)N=c2sc3cc(Cl)ccc3n2C)cc1 | – | inactive: 3.13% |
| COc1cccc(/C=C/C(=O)Nc2ccc(OC)nc2)c1 | inconclusive: 17.8 µM [inhibitor, single point] | – |
| Cc1ccccc1C(=O)Nc1nnc(S(=O)(=O)N2CCCc3ccccc32)s1 | inconclusive: 22.4 µM [inhibitor, single point] | – |
